{"sequences": {"note": "Chains of the proteins cited; added tags and fusions are not shown. Chains listed by the source or under a name are the forms on record and can include a tag or linker.", "HsRAD50-head (Homo sapiens), one chain, as listed by the source, chain 1 of 2": "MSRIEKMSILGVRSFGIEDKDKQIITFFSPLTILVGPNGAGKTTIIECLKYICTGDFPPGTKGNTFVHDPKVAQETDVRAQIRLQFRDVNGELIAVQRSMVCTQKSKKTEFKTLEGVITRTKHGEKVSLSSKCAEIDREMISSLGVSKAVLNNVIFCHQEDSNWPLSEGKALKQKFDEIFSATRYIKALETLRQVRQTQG", "HsRAD50-head (Homo sapiens), one chain, as listed by the source, chain 2 of 2": "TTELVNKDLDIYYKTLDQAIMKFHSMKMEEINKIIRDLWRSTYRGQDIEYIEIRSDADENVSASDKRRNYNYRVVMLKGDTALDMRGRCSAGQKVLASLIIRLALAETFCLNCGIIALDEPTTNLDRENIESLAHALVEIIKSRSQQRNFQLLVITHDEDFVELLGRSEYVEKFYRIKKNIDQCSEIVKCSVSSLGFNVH"}, "source": "paper PMC11260466", "about": "“Binding of the TRF2 iDDR motif to RAD50 highlights a convergent evolutionary strategy to inactivate MRN at telomeres”", "tested_on": "HsRAD50-head (Homo sapiens)", "assay": "EMSA", "details": "Mg-ATP, EMSA: 20 mM Bis-Tris propane pH 8.0, 200 mM NaCl, 0.5 mM TCEP, Mg-ATP added to RAD50, 500 nM DNA duplex, 5% polyacrylamide, 0.5x TBE, recombinant protein, label: 5'-carboxyfluorescein (F) on strand 1", "note": "Construct, isoform or probe ends are uncertain for at least one entry. Weaker means in comparison with the reference protein, sequence or condition of that experiment."}
{"sequence": "TAGTGCTGTAGGAGAATATACGGGCTGCTCGTGTTGACAAGTACTGAT / ATCAGTACTTGTCAACACGAGCAGCCCTATATTCTCCTACAGCACTA [48-mer DNA duplex]", "values": [{"measurement": "binding result", "setting": "+ GST-iDDR(WT) (Myc, linker, TRF2 449-473), increasing amounts, inhibition dose-dependent", "result": "binds more weakly"}, {"measurement": "binding result", "setting": "+ TRX-iDDR(WT) (His-TrxA-TRF2 449-473)", "result": "binds more weakly"}]}
